# From the supplement of paper PMC12067093, “Discovery and optimisation of a covalent ligand for TRIM25 and its application to targeted protein ubiquitination” (Chemical Science, 2025)
# The chains behind the UniProt entries cited, without tags or fusion partners. Where a name states a change or a piece, a line headed by the entry shows the natural chain unless it says otherwise.
# UniProt Q92667: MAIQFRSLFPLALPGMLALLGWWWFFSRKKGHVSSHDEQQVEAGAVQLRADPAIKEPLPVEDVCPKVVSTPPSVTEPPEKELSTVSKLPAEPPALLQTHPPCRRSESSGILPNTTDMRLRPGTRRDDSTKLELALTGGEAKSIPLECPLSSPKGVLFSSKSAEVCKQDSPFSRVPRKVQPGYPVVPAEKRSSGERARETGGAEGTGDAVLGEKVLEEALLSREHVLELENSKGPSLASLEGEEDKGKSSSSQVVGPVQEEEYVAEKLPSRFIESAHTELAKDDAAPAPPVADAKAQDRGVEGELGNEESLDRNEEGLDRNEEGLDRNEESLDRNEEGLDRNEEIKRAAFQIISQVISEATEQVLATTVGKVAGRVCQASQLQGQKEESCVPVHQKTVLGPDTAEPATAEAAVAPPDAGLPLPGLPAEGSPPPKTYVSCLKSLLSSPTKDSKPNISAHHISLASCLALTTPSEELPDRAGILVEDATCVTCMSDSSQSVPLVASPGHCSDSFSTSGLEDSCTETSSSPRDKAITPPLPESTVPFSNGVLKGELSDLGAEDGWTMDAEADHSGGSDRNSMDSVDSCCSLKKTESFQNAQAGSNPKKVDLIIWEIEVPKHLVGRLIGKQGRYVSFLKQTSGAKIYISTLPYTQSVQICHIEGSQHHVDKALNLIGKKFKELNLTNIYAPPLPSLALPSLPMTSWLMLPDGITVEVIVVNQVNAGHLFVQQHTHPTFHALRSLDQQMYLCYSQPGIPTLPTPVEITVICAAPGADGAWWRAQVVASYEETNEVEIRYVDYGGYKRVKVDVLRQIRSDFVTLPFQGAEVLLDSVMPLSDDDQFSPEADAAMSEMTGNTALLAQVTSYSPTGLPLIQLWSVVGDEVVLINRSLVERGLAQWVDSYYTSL
# UniProt Q9NYG5, whole entry, looked up: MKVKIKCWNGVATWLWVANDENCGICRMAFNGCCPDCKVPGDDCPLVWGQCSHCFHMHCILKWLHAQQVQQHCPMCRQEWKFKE
# UniProt P30837: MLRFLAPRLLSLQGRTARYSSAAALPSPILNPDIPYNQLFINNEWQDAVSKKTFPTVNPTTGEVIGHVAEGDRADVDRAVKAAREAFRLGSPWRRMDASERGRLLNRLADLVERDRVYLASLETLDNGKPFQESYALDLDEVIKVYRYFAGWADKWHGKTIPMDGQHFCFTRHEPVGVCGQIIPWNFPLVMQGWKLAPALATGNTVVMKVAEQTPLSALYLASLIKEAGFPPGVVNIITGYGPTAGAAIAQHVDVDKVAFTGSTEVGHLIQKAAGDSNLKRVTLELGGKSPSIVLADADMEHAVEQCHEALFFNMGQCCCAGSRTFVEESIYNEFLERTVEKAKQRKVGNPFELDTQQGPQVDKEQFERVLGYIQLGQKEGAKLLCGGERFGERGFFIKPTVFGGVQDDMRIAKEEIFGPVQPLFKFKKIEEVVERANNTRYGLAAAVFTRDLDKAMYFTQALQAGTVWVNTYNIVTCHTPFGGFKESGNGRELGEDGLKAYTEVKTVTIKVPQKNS
# UniProt O43865, whole entry, looked up: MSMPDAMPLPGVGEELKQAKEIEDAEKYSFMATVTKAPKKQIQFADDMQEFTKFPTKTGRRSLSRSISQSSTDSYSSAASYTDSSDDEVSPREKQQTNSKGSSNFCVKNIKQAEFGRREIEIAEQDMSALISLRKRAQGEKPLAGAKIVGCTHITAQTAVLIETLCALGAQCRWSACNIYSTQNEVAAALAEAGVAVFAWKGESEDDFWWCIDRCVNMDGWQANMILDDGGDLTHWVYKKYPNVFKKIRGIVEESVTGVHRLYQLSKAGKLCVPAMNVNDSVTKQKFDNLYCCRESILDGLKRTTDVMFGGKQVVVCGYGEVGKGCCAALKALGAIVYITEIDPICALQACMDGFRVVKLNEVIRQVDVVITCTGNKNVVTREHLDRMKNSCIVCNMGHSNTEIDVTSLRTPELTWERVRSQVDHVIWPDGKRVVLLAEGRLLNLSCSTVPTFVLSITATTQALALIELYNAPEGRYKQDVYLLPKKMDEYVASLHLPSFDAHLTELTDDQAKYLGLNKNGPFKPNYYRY
# UniProt P00568: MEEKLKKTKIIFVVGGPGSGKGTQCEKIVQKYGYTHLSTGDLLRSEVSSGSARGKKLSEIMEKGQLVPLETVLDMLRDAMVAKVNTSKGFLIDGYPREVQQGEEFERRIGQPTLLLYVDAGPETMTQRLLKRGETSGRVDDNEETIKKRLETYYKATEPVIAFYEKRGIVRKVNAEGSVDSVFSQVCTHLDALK
# UniProt Q9UJX5, whole entry, looked up: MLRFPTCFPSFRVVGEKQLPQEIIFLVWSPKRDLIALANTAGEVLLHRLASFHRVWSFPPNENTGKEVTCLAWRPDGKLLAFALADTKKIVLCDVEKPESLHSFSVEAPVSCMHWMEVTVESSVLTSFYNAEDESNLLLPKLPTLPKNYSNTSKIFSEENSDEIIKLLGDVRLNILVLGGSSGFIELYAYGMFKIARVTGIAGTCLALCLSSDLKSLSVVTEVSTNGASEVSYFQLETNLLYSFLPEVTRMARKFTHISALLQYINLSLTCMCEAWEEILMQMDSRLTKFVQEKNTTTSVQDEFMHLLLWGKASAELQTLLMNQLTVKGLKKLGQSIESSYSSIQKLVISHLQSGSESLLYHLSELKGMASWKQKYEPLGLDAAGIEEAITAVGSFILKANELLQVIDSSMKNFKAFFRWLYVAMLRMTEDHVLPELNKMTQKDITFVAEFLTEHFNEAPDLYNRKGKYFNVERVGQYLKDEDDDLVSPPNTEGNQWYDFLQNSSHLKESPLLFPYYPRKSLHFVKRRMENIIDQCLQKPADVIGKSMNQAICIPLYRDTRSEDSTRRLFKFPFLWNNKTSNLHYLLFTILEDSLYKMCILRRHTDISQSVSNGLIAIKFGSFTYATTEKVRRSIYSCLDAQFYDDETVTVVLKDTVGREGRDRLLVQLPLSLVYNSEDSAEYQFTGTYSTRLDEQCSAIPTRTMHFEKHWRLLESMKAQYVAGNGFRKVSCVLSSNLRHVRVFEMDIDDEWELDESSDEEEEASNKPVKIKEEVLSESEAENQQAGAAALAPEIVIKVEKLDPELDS
# UniProt O00116: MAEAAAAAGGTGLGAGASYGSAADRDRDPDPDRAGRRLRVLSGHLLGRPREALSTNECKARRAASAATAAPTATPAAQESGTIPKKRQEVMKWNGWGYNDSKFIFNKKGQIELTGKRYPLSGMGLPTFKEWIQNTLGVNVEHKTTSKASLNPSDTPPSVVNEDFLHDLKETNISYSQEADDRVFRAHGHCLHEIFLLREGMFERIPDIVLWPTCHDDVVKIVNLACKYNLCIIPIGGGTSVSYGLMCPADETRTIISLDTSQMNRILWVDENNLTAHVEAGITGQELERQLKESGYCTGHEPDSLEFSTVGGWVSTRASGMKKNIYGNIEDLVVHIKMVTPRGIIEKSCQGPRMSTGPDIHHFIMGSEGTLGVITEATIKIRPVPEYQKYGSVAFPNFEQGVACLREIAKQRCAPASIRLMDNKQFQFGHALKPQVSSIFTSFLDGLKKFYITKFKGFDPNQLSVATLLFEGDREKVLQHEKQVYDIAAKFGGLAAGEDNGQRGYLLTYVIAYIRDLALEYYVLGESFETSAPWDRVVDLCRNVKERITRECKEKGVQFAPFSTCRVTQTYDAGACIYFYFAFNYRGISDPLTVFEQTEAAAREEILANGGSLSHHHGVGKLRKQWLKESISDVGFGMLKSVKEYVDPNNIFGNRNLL
# UniProt P49189: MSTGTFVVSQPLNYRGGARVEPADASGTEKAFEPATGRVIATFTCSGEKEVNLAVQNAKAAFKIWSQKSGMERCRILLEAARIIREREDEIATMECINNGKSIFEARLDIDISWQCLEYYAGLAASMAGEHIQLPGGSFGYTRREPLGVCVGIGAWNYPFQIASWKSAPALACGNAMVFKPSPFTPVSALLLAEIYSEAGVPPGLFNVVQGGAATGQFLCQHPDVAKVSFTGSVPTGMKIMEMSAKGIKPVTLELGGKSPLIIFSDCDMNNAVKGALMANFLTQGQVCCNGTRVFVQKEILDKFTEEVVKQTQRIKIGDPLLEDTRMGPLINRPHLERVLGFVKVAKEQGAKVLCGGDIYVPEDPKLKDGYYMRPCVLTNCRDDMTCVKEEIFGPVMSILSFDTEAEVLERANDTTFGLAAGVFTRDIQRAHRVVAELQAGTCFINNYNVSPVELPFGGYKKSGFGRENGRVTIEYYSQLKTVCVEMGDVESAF
# UniProt Q8IZ83: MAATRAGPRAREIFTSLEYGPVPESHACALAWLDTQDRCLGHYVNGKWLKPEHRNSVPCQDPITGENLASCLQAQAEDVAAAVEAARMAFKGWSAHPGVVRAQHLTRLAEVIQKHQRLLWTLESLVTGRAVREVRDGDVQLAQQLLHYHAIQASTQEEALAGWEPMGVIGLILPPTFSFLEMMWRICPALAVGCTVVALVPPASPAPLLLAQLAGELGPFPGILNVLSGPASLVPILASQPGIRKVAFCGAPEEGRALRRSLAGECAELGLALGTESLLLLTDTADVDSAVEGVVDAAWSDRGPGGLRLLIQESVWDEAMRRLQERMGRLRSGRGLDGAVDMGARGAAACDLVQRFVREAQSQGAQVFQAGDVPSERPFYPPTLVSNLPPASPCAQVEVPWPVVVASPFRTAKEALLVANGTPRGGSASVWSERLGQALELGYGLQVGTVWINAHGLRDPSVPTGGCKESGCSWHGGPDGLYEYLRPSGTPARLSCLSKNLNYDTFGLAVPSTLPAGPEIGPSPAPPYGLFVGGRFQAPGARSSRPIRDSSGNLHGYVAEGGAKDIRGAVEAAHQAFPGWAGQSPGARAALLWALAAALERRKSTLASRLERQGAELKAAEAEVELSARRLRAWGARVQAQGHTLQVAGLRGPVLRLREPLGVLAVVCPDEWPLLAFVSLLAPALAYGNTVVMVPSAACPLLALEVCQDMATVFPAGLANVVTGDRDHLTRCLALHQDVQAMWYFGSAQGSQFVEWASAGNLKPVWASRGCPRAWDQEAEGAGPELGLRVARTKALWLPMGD
# UniProt P54886: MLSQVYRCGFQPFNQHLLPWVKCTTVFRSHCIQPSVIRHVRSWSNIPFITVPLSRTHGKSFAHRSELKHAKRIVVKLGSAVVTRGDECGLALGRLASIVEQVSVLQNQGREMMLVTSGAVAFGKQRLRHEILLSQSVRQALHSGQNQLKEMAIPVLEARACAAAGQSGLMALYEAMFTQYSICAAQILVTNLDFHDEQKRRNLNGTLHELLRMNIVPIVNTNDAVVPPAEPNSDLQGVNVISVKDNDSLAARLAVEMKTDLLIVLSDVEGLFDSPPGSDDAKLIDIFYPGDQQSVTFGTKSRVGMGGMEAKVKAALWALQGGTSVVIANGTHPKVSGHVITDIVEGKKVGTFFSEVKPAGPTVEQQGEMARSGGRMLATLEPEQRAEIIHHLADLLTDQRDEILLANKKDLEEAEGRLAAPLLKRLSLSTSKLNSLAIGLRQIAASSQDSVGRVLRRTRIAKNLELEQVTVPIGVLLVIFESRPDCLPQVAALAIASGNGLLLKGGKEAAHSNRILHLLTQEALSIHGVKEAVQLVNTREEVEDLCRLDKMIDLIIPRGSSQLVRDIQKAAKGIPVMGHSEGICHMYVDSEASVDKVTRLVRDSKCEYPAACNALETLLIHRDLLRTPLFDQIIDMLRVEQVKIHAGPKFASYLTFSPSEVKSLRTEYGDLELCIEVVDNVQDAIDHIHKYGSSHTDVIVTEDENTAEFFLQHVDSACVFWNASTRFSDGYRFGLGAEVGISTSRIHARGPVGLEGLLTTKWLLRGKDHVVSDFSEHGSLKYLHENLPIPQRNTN
# UniProt Q13155: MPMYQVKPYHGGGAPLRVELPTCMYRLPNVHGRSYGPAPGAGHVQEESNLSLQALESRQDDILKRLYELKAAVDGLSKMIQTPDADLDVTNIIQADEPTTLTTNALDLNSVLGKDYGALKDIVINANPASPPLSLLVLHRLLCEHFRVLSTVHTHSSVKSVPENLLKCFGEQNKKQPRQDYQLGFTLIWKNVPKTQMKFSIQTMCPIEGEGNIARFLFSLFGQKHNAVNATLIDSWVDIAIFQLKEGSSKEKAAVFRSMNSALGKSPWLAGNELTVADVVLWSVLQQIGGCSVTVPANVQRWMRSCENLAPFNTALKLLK
# UniProt P04075: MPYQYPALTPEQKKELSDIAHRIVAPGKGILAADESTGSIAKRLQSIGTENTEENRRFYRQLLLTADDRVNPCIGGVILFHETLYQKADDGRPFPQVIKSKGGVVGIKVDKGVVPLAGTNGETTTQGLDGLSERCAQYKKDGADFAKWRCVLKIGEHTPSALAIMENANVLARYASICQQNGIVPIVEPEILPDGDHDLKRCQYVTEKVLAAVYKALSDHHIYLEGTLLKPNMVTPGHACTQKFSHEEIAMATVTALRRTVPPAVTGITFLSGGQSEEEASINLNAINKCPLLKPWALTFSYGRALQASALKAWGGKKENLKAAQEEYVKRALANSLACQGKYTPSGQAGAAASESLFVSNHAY
# This is one part of the list.
# Compound: CC1Cc2ccccc2N1C(=O)C1CCCN(C1)C(=O)CCl (mixture of isomers) [TRIM25 ligand 11 (diastereomer mixture)]
# Test: probe-labelled cysteine peptide fold change vs DMSO (competition) (log2 fold change); higher = less target engagement (more negative = stronger competition)
# Settings: THP-1, incubation time: 4 h
# 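Further: competitive chemoproteomic profiling in live THP-1 cells with an iodoacetamide desthiobiotin (IA-DTB) probe, comparing probe-labelled peptide intensities in compound-treated cells against DMSO-treated controls.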
Target,probe-labelled cysteine peptide fold change (10 µM),probe-labelled cysteine peptide fold change (50 µM)
AKAP1_Q92667_389_EESCVPVHQK (UniProt Q92667),0.00574,0.0244
ALAS1_P13196_263_VCGAVMDTLK (UniProt P13196),-0.0227,0.246
ANAPC11_Q9NYG5_73_WLHAQQVQQHCPMCR (UniProt Q9NYG5),0.149,0.137
ALDH1B1_P30837_169_TIPMDGQHFCFTR (UniProt P30837),-0.0255,0.0642
ALDH1B1_P30837_179_HEPVGVCGQIIPWNFPLVMQGWK (UniProt P30837),-0.0495,-0.0294
AHCYL1_O43865_373_QVDVVITCTGNK (UniProt O43865),0.104,0.0158
AK1_P00568_187_KVNAEGSVDSVFSQVCTHLDALK (UniProt P00568),-0.17,-0.224
ANAPC4_Q9UJX5_697_LDEQCSAIPTR (UniProt Q9UJX5),0.138,0.135
AGPS_O00116_190_AHGHCLHEIFLLR (UniProt O00116),0.146,0.0844
AIP_O00170_121+122_HCCGVAQMR (UniProt O00170),-0.0594,-0.276
ALDH9A1_P49189_376_DGYYMRPCVLTNCR (UniProt P49189),0.146,0.105
ANK2_Q01484_60_GGIDINTCNQNGLNALHLAAK (UniProt Q01484),-0.0102,0.0518
AIMP1_Q12904_211_MVILLCNLKPAK (UniProt Q12904),-0.363,-0.36
AHNAK_Q09666_5502_SSGCDVNLPGVNVK (UniProt Q09666),-0.108,-0.216
AKR7A2_O43488_132+156_RLQCPQVDLFYLHAPDHGTPVEETLHACQR (UniProt O43488),-0.17,-0.161
AKAP13_Q12802_2101_FCGQHNQSVNYFK (UniProt Q12802),0.0734,-0.0454
ALDH16A1_Q8IZ83_467_DPSVPTGGCK (UniProt Q8IZ83),0.0518,-0.0262
ALCAM_Q13740_270_CLGNGNPPPEEFLFYLPGQPEGIR (UniProt Q13740),0.189,0.0105
AGO1_Q9UL18_304_RPASHQTFPLQLESGQTVECTVAQYFK (UniProt Q9UL18),0.0201,0.0277
AKAP1_Q92667_147_SIPLECPLSSPK (UniProt Q92667),-0.0299,-0.202
AGPS_O00116_214_IPDIVLWPTCHDDVVK (UniProt O00116),-0.0325,-0.0247

Target,probe-labelled cysteine peptide fold change (10 µM),probe-labelled cysteine peptide fold change (50 µM)
ALKBH8_Q96BT7_296_YLWTHGITCR (UniProt Q96BT7),0.0454,-0.000544
AHCYL2_Q96HN2_454_QVDIVITCTGNK (UniProt Q96HN2),0.145,0.133
ALDH16A1_Q8IZ83_249_KVAFCGAPEEGR (UniProt Q8IZ83),-0.0454,-0.0142
AKR1B1_P15121_81_LWCTYHEK (UniProt P15121),0.0955,0.0203
ALAD_P13716_132_TFPNLLVACDVCLCPYTSHGHCGLLSENGAFR (UniProt P13716),0.0316,0.149
ALDH18A1_P54886_606_CEYPAACNALETLLIHR (UniProt P54886),0.0799,-0.0327
AHCY_P23526_195_FDNLYGCR (UniProt P23526),0.0837,0.189
AIMP2_Q13155_23_PYHGGGAPLRVELPTCMYR (UniProt Q13155),-0.0734,-0.143
ALDH9A1_P49189_484_TVCVEMGDVESAF (UniProt P49189),-0.194,-0.204
ALDH3A2_P51648_50_DILTAIAADLCK (UniProt P51648),-0.0402,0.0674
ANAPC4_Q9UJX5_732_KVSCVLSSNLR (UniProt Q9UJX5),-0.0409,0.0694
ANAPC7_Q9UJX3_259_AISTICSLEK (UniProt Q9UJX3),-0.0651,-0.167
AKR1B1_P15121_304_VCALLSCTSHK (UniProt P15121),0.0108,-0.134
AK2_P54819_40+42_LAENFCVCHLATGDMLR (UniProt P54819),-0.0303,0.0733
ALDOA_P04075_240_PNMVTPGHACTQK (UniProt P04075),0.139,0.117
AKAP8_O43823_484_KIEAAHCLACDMLIPAQPQLLQR (UniProt O43823),0.092,-0.0514
AKAP17A_Q02040_95_SFLACLDGK (UniProt Q02040),-0.0826,0.0538
AHCTF1_Q8WYP5_1261_CAVPVETEWLK (UniProt Q8WYP5),-0.467,-0.302
AKAP8L_Q9ULX6_487_KVEAAHCAACDLFIPMQFGIIQK (UniProt Q9ULX6),-0.14,-0.0848
AHCYL1_O43865_293_QKFDNLYCCR (UniProt O43865),-0.0935,-0.0937
AIG1_Q9NVV5_6_MALVPCQVLR (UniProt Q9NVV5),-0.104,0.301
